Tests used:
[1] = target: T1, GBD-OsMYBS1 fusion protein (yeast; rice, UniProt P04386 1-147); assay: two-hybrid in barley aleurone cells, luciferase reporter
T1 construct: Two-hybrid bait expressed from the Ubi promoter in barley aleurone cells
Experimental: (§1) In c-Myb, R2 and R3 bind to specific DNA sequences cooperatively. To test the possibility that OsMYBS binds DNA as dimers, homologous and heterologous interactions among OsMYBS proteins were analyzed using a two-hybrid system in barley aleurone cells. The full-length OsMYBS sequences were individually fused at the C-terminus of GAD or GBD. The GAD-OsMYBS and GBD-OsMYBS chimeric genes were fused downstream of the Ubi promoter and used as effector constructs. A DNA fragment containing five tandem repeats of UAS (5×UAS) was fused upstream of the CaMV35S minimal promoter-Luc chimeric gene and used as a reporter construct. The barley half seeds were particle-bombarded simultaneously with two effector plasmids, each containing GAD-OsMYBS and GBD-OsMYBS fusion genes, and the reporter plasmid. The bombarded half seeds were incubated in buffer without glucose for 24 h, and luciferase activity was determined. […] Except that the background level of reporter gene expression in the presence of GBD-OsMYBS1 alone is too high to detect the interactions between GBD-OsMYBS1 and GAD-OsMYBS proteins, similar results were obtained with the yeast two-hybrid experiments.

[2] = target: T2, GBD-OsMYBS2 fusion protein (yeast; rice); assay: two-hybrid in barley aleurone cells, luciferase reporter; similar results in yeast two-hybrid
T2 construct: Two-hybrid bait
Experimental: as §1

[3] = target: T3, GBD-OsMYBS3 fusion protein (yeast; rice); assay: as above
T3 construct: Two-hybrid bait
Experimental: as §1

Measured: binding result

B1: GAD-OsMYBS2 fusion protein (other)
chain: MPNLTSIDPLPVPADGGKRRASDDSELASGQQKRRRRKVQERKKGVPWTEEEHKKFLEGLRQLGKGDWRGISKNFVTSRTATQVASHAQKYFLRQTNPGKKKRRASLFDVVAECSDDQLPSPQSVGTKPPTQDIIHTDRGDVPILSYPVARGFRGDSVQVDELTEYVKRLKAAEDMSLSMISGLEMASSSISSLELSIAPSHLRIDGAIKGLGSKPNFPPKEFGSASATVFCPPCCCLLLLFFFFFFAGVVCCCCCCSCHANFVFGSCGVSFTSFI
notes: Two-hybrid prey expressed from the Ubi promoter in barley aleurone cells; not shown: limits not
no binding: [1] | [2] | [3]

— patent US20040107456A1 (ACADEMIA SINICA, published 2004)
